Hit rate of the full screen: of about 53,000 sequences, about 3,700 (7%) were called active.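 Rule for the calls: active = gene knockdowns whose robust z-score for IL-1 alpha signal is at least 2 or at most -2, so actives lie on both sides; inactive = the rest.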 The list shows a part of the results.
Test: Components of the Cytosolic LPS Sensing Pathway: Gene Identification via Genome-wide siRNA Screen;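 note: robust z of the log signal after scaling to non-targeting control siRNA wells of the plate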
Conditions: RAW264.7 macrophages, IL-1a HTRF, actives lie on both sides, screened at 100 nM (by protocol), cells primed 5 h with Pam3CSK4 first
Outline: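 Read-out: IL-1a HTRF on supernatant, divided by plate negative-control median ×100, log-transformed and converted to robust z-score. Cells were RAW264.7 given 100 nM siRNA, Pam3CSK4-primed 5 hours, then LipidA-transfected 24 hour.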

Sequence | z-score
GGGAGAUUGGAAACAAAAATT against Hsd3b4 | inactive: -0.935
GGAACUUCAUCCAAACUGATT against Ap4m1 | inactive: -0.12
CCCAGGUCCUACCUUCUUUTT against Ppcdc | active: -2.1
CCAUCUAUCUGGGAUCUCGTT against Cyp2a4 | inactive: 0.111
GCACAAAUACAGGUCGUCUTT against Unk | inactive: 0.0277
CCGACUGCUCGUAAAUUCATT against Ndufa12 | active: 2.79
CCUACCUGAUUGUGACAUUTT against Arl6ip1 | inactive: -0.309
GGUUUGUAUCUCACUUUUGTT against Olfr1247 | inactive: 0.31
CCAAGCCUACUACCAUCAUTT against Fabp3 | inactive: 0.0751
GGUCACCUUUAUGCUACUUTT against Traf1 | inactive: -0.921
UCUUCCGACUGCCUUUCUGTT against Olfr1417 | inactive: 1.24
GGAUGUCACUGUUUCACAATT against Clic6 | inactive: -1.64
CCUUUGUCUUUGGUAAAUCTT against Baz2b | inactive: -1.08
GGAAGUCCUAGUCAUCUUUTT against Mgat2 | inactive: 1.05
CGAAACUGGAGAUGUUAUATT against Serpine1 | inactive: 1.27
GGACUGCCUUAUGCUACGATT against Setd5 | inactive: -0.44
GGAAGACACUUAAAAAUUCTT against Mxra8 | inactive: -1.91
GGCAGUCUGUCAGAUCAAUTT against Spata31d1d | inactive: -0.885
GGACUUUGAGUUAAAUGCATT against Myh7 | inactive: -0.599
GGACCUAGAUUUUCUACACTT against Cask | inactive: 0.662
GCUGGCUAUACUUUACAACTT against Prkg1 | active: 2.11
GGAUUGGAUCUUACAUGUCTT against Scnn1b | inactive: -0.137
GGAGAGCAAUGGUCCAACATT against Clta | inactive: 0.747
GCCUCAUGUCUACUCGCUUTT against Nmur1 | inactive: -0.583
GGUUUCUAUUCUACCUCCCTT against Ceacam14 | inactive: -0.571
GGAAAUUUUGGAGAUGAUATT against Wdr36 | inactive: -1.03
CGGGAUAUAUUCUCAGACUTT against Rhbdl2 | inactive: -0.387

Sequence | z-score
GCCAUAUAAGAUUCUUGUGTT against Pi4kb | inactive: -0.63
GGUAGAGACGUGAAUGCUCTT against Tmem184b | inactive: -0.383
GCUUGUUAUGAGCGGGCUUTT against Rhox9 | inactive: -0.00918
GGUCAAUGCUACUAAUGAATT against Ankrd61 | inactive: 0.661
CCCGAAUGAUCAAACCAAGTT against Stpg1 | inactive: 0.955
GGGACUCUUCACUUGAAAUTT against Ccl3 | inactive: -3.8e-05
GCCGGAAUCAAGAUUAUCATT against Foxm1 | active: -2.04
GGAUACUGCCAUUCAUAGGTT against Cstdc2 | inactive: -0.182
GGUUUACCCUGCUCAUUUUTT against Fbxl6 | inactive: 1.71
GGCAAGGAAGGAGAUUGCUTT against Ist1 | inactive: -0.779
GGCAUUGGCAUUUUUAUAGTT against 9530056K15Rik | inactive: -0.879
GGUUAUCUUUGGGACUUAATT against Lrmp | inactive: -1.66
GCUCGGACUGACCUUUAUGTT against Cnot7 | inactive: 0.532
GGAGUUCAUUGUUUGGUUGTT against Nat2 | inactive: 0.593
GGAGAGUGUUACAAAAAUUTT against Rcbtb1 | inactive: 0.132
CCUCAUCAUAUUGAUGAGUTT against Ranbp3 | inactive: 0.977
GGCAUAUGCUGAUUAUAGATT against Ankef1 | inactive: 0.378
GGCUUGCCCUUUAAUAAAATT against Krt88 | inactive: 0.605
GGACUACAUGCUCACGUUATT against Ccm2 | active: 2.07
GGCUAUGCAAUGGAUCUGATT against Osbpl5 | inactive: 0.913
GGUGAUGUACAACUUUUUGTT against Wdr34 | inactive: -0.453
GGGUAAACUUCAUGAUCCATT against Kif5b | inactive: -0.0506
GGAAUAUCUCUUUCAAUGATT against Msn | inactive: -0.805
GGGUACCAUAGGAACCAUGTT against Yipf7 | inactive: -0.732
UUUAGCCUUGCAUACGGACTT against Sfswap | inactive: 0.642
GGUGCAAACUGAGGUCCUGTT against Ebna1bp2 | inactive: 1.67

Some of the entries above, set out differently:
Sequence,z-score
GGGACUCUUCACUUGAAAUTT against Ccl3,inactive: -3.8e-05
GCCGGAAUCAAGAUUAUCATT against Foxm1,active: -2.04
GGAUACUGCCAUUCAUAGGTT against Cstdc2,inactive: -0.182
GGUUUACCCUGCUCAUUUUTT against Fbxl6,inactive: 1.71
GGCAAGGAAGGAGAUUGCUTT against Ist1,inactive: -0.779
GGCAUUGGCAUUUUUAUAGTT against 9530056K15Rik,inactive: -0.879
GGUUAUCUUUGGGACUUAATT against Lrmp,inactive: -1.66
GCUCGGACUGACCUUUAUGTT against Cnot7,inactive: 0.532
GGAGUUCAUUGUUUGGUUGTT against Nat2,inactive: 0.593
GGAGAGUGUUACAAAAAUUTT against Rcbtb1,inactive: 0.132
CCUCAUCAUAUUGAUGAGUTT against Ranbp3,inactive: 0.977
GGCAUAUGCUGAUUAUAGATT against Ankef1,inactive: 0.378
GGCUUGCCCUUUAAUAAAATT against Krt88,inactive: 0.605
GGACUACAUGCUCACGUUATT against Ccm2,active: 2.07
GGCUAUGCAAUGGAUCUGATT against Osbpl5,inactive: 0.913
GGUGAUGUACAACUUUUUGTT against Wdr34,inactive: -0.453

From PubChem BioAssay AID1508600 (Functional Genomics Laboratory (NCATS/FGL), 2020)
